In the supplement of paper PMC3334620:
Over roughly 33,000 sequences, “E-score (-0.5 to 0.5)” has its median near -0.015; the highest 2% begin near 0.3. Some of the results follow.

target: T1, Abf1 (UniProt P14164); assay: PBM E-score (8-mer binding enrichment) (E-score (-0.5 to 0.5)); higher = stronger / more preferred TF binding; conditions: protein concentration: 200 nM; construct: GST-full length
T1 sequence: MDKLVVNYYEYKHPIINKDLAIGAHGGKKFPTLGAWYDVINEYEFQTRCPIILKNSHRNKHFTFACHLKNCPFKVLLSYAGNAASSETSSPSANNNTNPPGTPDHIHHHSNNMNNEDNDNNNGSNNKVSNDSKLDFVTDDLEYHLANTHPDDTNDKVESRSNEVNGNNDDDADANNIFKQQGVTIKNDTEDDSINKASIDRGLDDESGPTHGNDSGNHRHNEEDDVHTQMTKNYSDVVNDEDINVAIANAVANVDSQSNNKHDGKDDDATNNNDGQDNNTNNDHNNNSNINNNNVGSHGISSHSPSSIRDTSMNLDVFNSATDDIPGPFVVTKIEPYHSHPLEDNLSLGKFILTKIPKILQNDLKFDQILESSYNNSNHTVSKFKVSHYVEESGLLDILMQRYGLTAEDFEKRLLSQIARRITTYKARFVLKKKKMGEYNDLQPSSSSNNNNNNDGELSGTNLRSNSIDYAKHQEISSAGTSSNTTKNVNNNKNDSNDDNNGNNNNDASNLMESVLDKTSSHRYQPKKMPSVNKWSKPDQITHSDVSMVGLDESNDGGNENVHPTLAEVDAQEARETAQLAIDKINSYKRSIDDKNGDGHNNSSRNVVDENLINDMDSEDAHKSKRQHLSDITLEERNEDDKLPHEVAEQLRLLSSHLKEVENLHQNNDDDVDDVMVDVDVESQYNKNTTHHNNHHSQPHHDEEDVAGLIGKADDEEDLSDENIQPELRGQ
Procedure, shortened: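 Yeast transcription factors, full-length or as DNA-binding domains, were expressed with a GST tag using PURExpress in vitro transcription/translation. At about 100-200 nM they were applied to universal all-10-mer Agilent arrays, double-stranded by primer extension on fresh or once-stripped slides. Fluorescent anti-GST detected bound protein, and masliner normalised the scans. E-scores for ungapped eight-base words, pooled with reverse complements, came from the Universal PBM Analysis Suite.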

Sequence | PBM E-score
CATTTAAG | 0.0948
GTAAAGAA | 0.113
CGAATGAC | 0.312
CACCCATG | 0.026
CACTACTA | -0.0387
ATTCGCAA | -0.0147
AAAGGCAA | -0.0156
GTATCCCA | -0.0942
GGGGTCTA | -0.132
GACCTTGC | -0.137
GCATAGCA | -0.0915
AGGTGCAC | -0.186
AAGTTTAT | 0.147
AAACTCCT | -0.13
AATATAGA | 0.19
ACAGAAAA | 0.0187
CCGCAAGA | 0.0829
AGATCATA | 0.192
CCGGTTTA | 0.0654
AGGCCAGA | -0.0743
CATTTAAA | 0.211
CCACCGGG | -0.141
GTCATAAC | 0.105
CATCACTA | 0.351
GAATCATA | -0.0285

Sequence | PBM E-score
AAAAGTGC | -0.0464
CTAAAGAG | -0.0578
CTAGACGC | 0.022
CATAGCAC | 0.0139
AACATGTG | 0.0961
CGGTGACA | 0.399
CCCCGACG | 0.106
CTAAACAG | 0.021
AACCCGCG | 0.0385
CCGTACCA | 0.303
CGTTACCA | 0.192
ATTACTTA | 0.141
CTTATTTC | 0.192
GAACGACA | 0.296
GCCTCCCA | -0.0682
GGCAGGAC | -0.221
CATAATGC | -0.136
CACTGTAC | -0.177
ACGTTGCT | 0.105
GCACCGAC | 0.135
AGTTTTTG | 0.0548
GATTTACA | 0.206
AGATAACG | 0.118
GGATTAGA | -0.0113
CACTACGA | 0.126

Sequence | PBM E-score
GAAGCTGA | -0.0959
CGACGGCA | 0.174
AAGCTCTA | 0.0174
ATCACGGG | 0.163
CCGAATTC | -0.0501
GGTAATTA | -0.00628
GACATGAC | 0.223
GGAAGTAA | -0.082
CGCTGGAA | -0.226
GCGTGACA | 0.369
CTGCTATA | 0.00993
CCTAAGCA | -0.0178
CATTCCCC | -0.057
CGGTTTTA | -0.11
ACCATGTC | 0.137
CAATCGAG | -0.191
GCGCTGCC | -0.197
GAAATGCA | 0.0956
CGCCTTAC | 0.0282
GAAAAGAC | -0.00769
CAAAAGGG | -0.111
TCTGCTCA | -0.0679
GAAAAAAA | 0.102
CCGGTTTC | -0.097
AGGCCCTG | -0.252

Sequence | PBM E-score
GACAAATC | 0.15
CTAAGACA | -0.015
GACATTCA | 0.167
CGCGCTGA | -0.11
AGCAGTCC | -0.183
CCGTATGA | 0.408
GTACACGA | 0.362
TTACTGAA | 0.0616
ATAGATAC | -0.0386
CCACGTCC | -0.0859
GGCGTACA | 0.0819
ATATTCAC | 0.107
ACGACTTC | 0.242
CTGGGCAA | -0.172
ACTGGTAG | -0.192
CAATTTAA | 0.167
CACTTATC | 0.155
ACATCCGA | -0.131
TAATGACA | 0.376
ACACAATG | -0.0799
AAGACGCG | -0.245
CAAGGGGC | -0.312
GAGGCACC | -0.286
ACCTGTTG | -0.0163
CCGCTACG | 0.0224

Taken from above.
GACAAATC | PBM E-score: 0.15
GGCGTACA | PBM E-score: 0.0819
CCGTATGA | PBM E-score: 0.408

Following part

Sequence | PBM E-score
CGGTTCTC | -0.114
CGATCGCG | 0.242
CGTGTTGC | -0.00721
AGCAAACT | 0.0536
ACGGACAA | 0.202
AGTAACTG | 0.00145
AAAATAGC | -0.0687
CAGCCTCA | 0.00892
ACTTTTTC | 0.161
GCACTCGC | -0.0729
GCAGCGGA | 0.0412
AAGTGACA | 0.394
AGACAAAA | 0.0375
ATGCTGGA | -0.104
CACCGCAA | 0.116
GCTCCTCC | -0.151
GAGCTTCC | 0.075
AATCTCAA | 0.0257
CCACCTCA | -0.175
ACTTAGCA | -0.0302
GGTGTTAC | -0.187
AACACGAC | 0.148
ACAATCGG | 0.0415
GCATTGAC | 0.0038
CACAGGAA | -0.104

Shown with tabs: part of the list above.
Sequence	PBM E-score
CCGTATGA	0.408
GTACACGA	0.362
TTACTGAA	0.0616
ATAGATAC	-0.0386
CCACGTCC	-0.0859
GGCGTACA	0.0819
ATATTCAC	0.107
ACGACTTC	0.242
ACTGGTAG	-0.192
CAATTTAA	0.167
CACTTATC	0.155
ACATCCGA	-0.131
TAATGACA	0.376
ACACAATG	-0.0799
AAGACGCG	-0.245
CAAGGGGC	-0.312
GAGGCACC	-0.286
CCGCTACG	0.0224
CGGTTCTC	-0.114
CGATCGCG	0.242
CGTGTTGC	-0.00721
AGCAAACT	0.0536
ACGGACAA	0.202
AGTAACTG	0.00145
AAAATAGC	-0.0687
ACTTTTTC	0.161
GCACTCGC	-0.0729
GCAGCGGA	0.0412
AAGTGACA	0.394
AGACAAAA	0.0375
ATGCTGGA	-0.104
CACCGCAA	0.116
GCTCCTCC	-0.151
GAGCTTCC	0.075
AATCTCAA	0.0257
CCACCTCA	-0.175
ACTTAGCA	-0.0302
GGTGTTAC	-0.187
AACACGAC	0.148
ACAATCGG	0.0415
GCATTGAC	0.0038
CACAGGAA	-0.104

(listing goes on)

Sequence | PBM E-score
CATCCATA | 0.0978
CCTCCGCA | -0.122
GGGTGTGA | -0.125
GCTAGCAC | -0.0691
TACCCATA | -0.169
CCCGACGC | -0.141
CGCAGACC | -0.227
ATCTTCTG | 0.0215
AGATAGCC | -0.112
CCGATAGC | -0.277
AGGAGTAT | -0.107
GGGATCAC | -0.0214
CGGCCCTC | -0.13
AGTAACGG | 0.0792
AACATGGA | -0.0976
GATGTGCC | -0.00551
GGGATAGA | -0.228
GACCTGGC | -0.0415
CACAGTGG | -0.0175
GGACCGAC | -0.284
CAGAATTC | 0.0421
AACCCACA | -0.0783
CCCGATCA | -0.0828
AAGAAGAC | 0.0359
GTAGTAAC | -0.0476

Sequence | PBM E-score
CCCTATAG | -0.14
AACGCCGC | -0.0204
CTTACAAC | 0.123
CTGAGCAG | 0.0408
GATCCAAC | 0.0815
CGTTTACC | 0.133
CTATTCTA | 0.141
GCCGTCAC | 0.0578
AGAATATG | 0.0694
CGGGTGAC | 0.213
GCGACGCC | -0.109
CAGTAGAA | 0.0212
AACTTCCT | -0.0239
ACTGGGGG | -0.259
AATTGCGG | -0.19
ATAAAGCC | -0.0649
GTTCGAGA | -0.0582
CACAAGGA | 0.0748
CGATAGGC | 0.115
CTTCATCA | 0.242
ATCAGGGC | -0.198
CGTGAAAA | 0.268
